PubChem BioAssay
Only results without a clear call are listed here; the source files them as inconclusive. Unless noted, no cut-off is given here; in the data, nearly all actives have AC50 up to about 26 µM.

Legend:
[1] = viability loss in pontine glioma line – cell-based, SU-DIPG-XVII, MIPE5.0, CellTiter-Glo, qHTS, dose response (AID 1347060); settings: CellTiter-Glo ATP luminescence;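 note: cells exposed to compound for 48 hours before viability readout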
[2] = viability loss in pontine glioma line – cell-based, SU-DIPG-XIII, MIPE5.0, CellTiter-Glo, qHTS, dose response (AID 1347064; cut-off not given, nearly all actives have AC50 up to about 23 µM;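 note: cells exposed to compound for 48 hours before the viability read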); settings: CellTiter-Glo ATP luminescence
[3] = JHH-DIPG-1 glioma cell viability, MIPE5.0 library, CellTiter-Glo luminescence, qHTS (AID 1347067); settings: JHH-DIPG-1 glioma viability, CellTiter-Glo ATP luminescence;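 note: cells exposed to compound for 48 hours before readout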

Measured: AC50

CCOC(=O)C(=O)CBr
inconclusive: [1] 1.05 nM | [2] 661 nM | [3] 6610 nM
